Experimental data as given in US7521466B2, “Dipeptide phenyl ethers” (Bexel Pharmaceuticals, Inc., priority 2003, dated 2009).
Counter-ions that a name gives are not always drawn. Some results were stated once for a whole list of compounds, not compound by compound.

Test system: ob/ob mice
Test: Lipid profile (TG, VLDL, cholesterol, HDL) in ob/ob mice
Format: in vivo
Conditions: 15-day treatment study
From the text: The leptin knock-out ob/ob mice is also considered a good model for insulin resistance and hyperlipidemia. Treatment of these animals with the compounds A and B lowered serum triglycerides (FIG. 4A) and VLDL (FIG. 4B) concentration by >50%.

Compound | increase of HDL levels compared to vehicle treated animals | lowering of VLDL concentration | lowering of serum triglycerides concentration
COC(=O)C(Cc1ccc(Oc2ccc(CC3SC(=O)NC3=O)cc2)cc1)NC(=O)C(N)Cc1cnc[nH]1 (stereo not drawn) [Compound A, 5-[4-(4-(2-(2-amino-3-imidazol-4-ylpropanamido)-2-methoxycarbonylethyl)phenoxy)benzyl]thiazolidin-2,4-dione dihydrochloride] | 20-32% | > 50% | > 50%
COC(=O)C(Cc1ccc(Oc2ccc(C=C3SC(=O)NC3=O)cc2)cc1)NC(=O)C(N)Cc1c[nH]cn1.Cl.Cl (stereo not drawn) [Compound B, 5-[4-(4-(2-(2-Amino-3-imidazol-4-ylpropanamido)-2-methoxycarbonylethyl)phenoxy)benzylidene]thiazolidin-2,4-dione dihydrochloride] | 20-32% | > 50% | > 50%
